According to PubChem BioAssay AID2685 (National Center for Advancing Translational Sciences (NCATS), 2010):
Screen size: about 320,000 compounds; about 2,100 (0.66%) were called active. Inconclusive means that the source gave no clear call. Such entries were picked first, then a sample of the others. Calls follow the shape of the dose curve; as a rule, active = well fitted inhibition curve with a large enough effect in the signal ratio, with a control signal flat (not every such curve was filed as active); inconclusive = small, poorly fitted or top-dose-only effect, or effect the other way, or a change in a side signal; inactive = flat fitted curve, though single readings scatter; the % refers to the signal ratio. Potencies of inconclusive entries are doubtful fits and often do not repeat.

Test: qHTS Assay for Lipid Storage Modulators in Drosophila S3 Cells
Conditions: BODIPY lipid droplet fluorescence, 18-24 h, cells fed with added oleic acid; lipid storage change, negative = inhibition: at 46.1 µM (top of the series) unless noted
Summary of the method: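 Drosophila S3 cells got compounds at several concentrations plus oleic acid (400 uM solution). Laser-scanning cytometry with 488 nm excitation read lipid droplets at 500-530 nm and cells at 575-640 nm. Percent activity was relative to 20 uM Triacsin C.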
% is scaled to controls: 0 for no effect and ±100 for the full control effect; potency is read from the fitted curve at half-maximal effect.

Row | Structure (SMILES) | Potency | lipid storage change, negative = inhibition
1 | Cn1c(SCc2nn[nH]n2)nc2c1c(=O)n(Cc1ccccc1Cl)c(=O)n2C | inconclusive: 4.61 µM [falling, single point] | 
2 | O=C(CCCc1ccccc1)Nc1cccc([N+](=O)[O-])c1 |  | inconclusive: -13.2%
3 | CC(=O)c1ccc(NC(=O)CC(NCCC2=CCCCC2)C(=O)O)cc1 (stereo not drawn) |  | inconclusive: 5.39%
4 | Fc1ccc(-c2nnc3ccc(N4CCc5ccccc5C4)nn23)cc1 | inconclusive: 3.26 µM [rising, full curve] | 
5 | CCC1S/C(=N/N=C/c2ccco2)NC1=O (stereo not drawn) |  | inconclusive: -0.5%
6 | Cc1ccc(S(=O)(=O)Oc2ccccc2N2C(=O)C3C4CCC(C4)C3C2=O)cc1 (stereo not drawn) | inconclusive: 29.1 µM [falling, single point] | 
7 | CCOc1ccc(CC2S/C(=N/c3ccccn3)NC2=O)cc1 (stereo not drawn) |  | inconclusive: 11.9%
8 | Cc1ccc(CN2C(=O)c3ccccc3C2C(=O)NCc2cccnc2)cc1 (stereo not drawn) |  | inconclusive: 8.77%
9 | COC(=O)c1ccc(N2CCN(S(=O)(=O)c3c(C)cc(C)cc3C)CC2)c([N+](=O)[O-])c1 |  | inconclusive: 40%
10 | COc1ccc([C@@H]2CC=C(C(=O)O)[C@H](c3ccc(Cl)cc3)N2S(=O)(=O)c2ccc(C)cc2)cc1OC |  | inconclusive: 3.64%
11 | COc1cc(SC)ccc1C(=O)Nc1ncc(Cl)cc1Cl |  | inconclusive: -4.21%
12 | O=C(CSc1nnc(-c2ccccc2O)o1)N1CCc2ccccc2C1 |  | inconclusive: -31.1%
13 | Cc1c(Cl)cccc1NC(=O)CCC(=O)NNC(=O)c1ccco1 |  | inconclusive: -15.3%
14 | CC1CCCCC1NC(=O)C(Cc1ccccc1)NS(=O)(=O)c1cccs1 (stereo not drawn) |  | inconclusive: -21.9%
15 | N#Cc1ccc2c(c1)C[C@]1(c3ccsc3)Oc3c(c(=O)oc4ccc(F)cc34)C2O1 |  | inconclusive: 35.1% [at 9.22 µM]
16 | O=C1CSC(c2ccccc2)N1c1ccccc1F (stereo not drawn) |  | inconclusive: 34.6%
17 | Cc1ccnc(NC(=O)c2ccc(Cl)c(S(=O)(=O)N3CCCCC3)c2)c1 |  | inconclusive: -4.17%
18 | C=CCn1c(=O)c2ccccc2n2c(SCC(=O)/C(C#N)=C(\C)N)nnc12 |  | inconclusive: -9.5%
19 | COC(=O)[C@@H](NC(=O)c1ccccc1)[C@@H](C)O |  | inconclusive: 49.4%
20 | Cc1cccc(-c2ocnc2C(=O)Nc2ccccc2C(=O)N2CCCC2)c1 |  | inconclusive: -74.5%
21 | Oc1ccc(-c2nc3ncccn3c2Nc2ccc3c(c2)OCCO3)cc1 | inconclusive: 29.1 µM [rising, single point] | 
22 | COc1ccc(C(=O)COC(=O)CCN2C(=O)C3C4C=CC(C5CC45)C3C2=O)cc1 (stereo not drawn) | inconclusive: 29.1 µM [falling, single point] | 
23 | Cc1cc(C(=O)Nc2c(C)nn(Cc3ccc(Cl)cc3)c2C)no1 |  | inactive: -9.5%
24 | COc1ccc(NC(=O)CC2C(=O)N(C)C(=S)N2Cc2ccco2)cc1 (stereo not drawn) |  | inconclusive: -32.8%
25 | Cc1ccc2oc(-c3ccccc3)c(C(=O)O)c(=O)c2c1 |  | inconclusive: -18.5%
26 | CCn1c(SCC(=O)NCc2ccc3c(c2)OCO3)nnc1-c1ccncc1 |  | inconclusive: -11% [at 9.22 µM]

Row | Structure (SMILES) | Potency | lipid storage change, negative = inhibition
27 | COc1ccc(C2C3=C(CC(C)(C)CC3=O)N(C)C3=C2C(=O)CC(C)(C)C3)cc1OC |  | inconclusive: -4.86%
28 | O=C(N/C(=C\c1ccco1)C(=O)N1CCC(O)CC1)c1ccccc1 |  | inconclusive: 38.7%
29 | CCN(CC)c1ccc2cc(C(=O)Nc3cccnc3N3CCOCC3)c(=O)oc2c1 |  | inconclusive: 78.5%
30 | CCS(=O)(=O)N1CCN(C2CCC(c3ccccc3)CC2)CC1 (stereo not drawn) |  | inconclusive: 16.7%
31 | CC(=O)N1CCCc2ccc(NS(=O)(=O)c3ccc(C)c(C)c3)cc21 |  | inconclusive: -22.2%
32 | CCOc1ccc(/C(O)=C2/C(=O)C(=O)N(c3ncccn3)C2c2ccc(C)cc2)cc1 (stereo not drawn) |  | inconclusive: -25.7%
33 | CCOc1ccc2[nH]c3nc(SCC(=O)NC4CCCC4)nnc3c2c1 |  | inconclusive: -3.69%
34 | Cn1c(=O)c2c(nc(NCc3ccc4c(c3)OCO4)n2C)n(C)c1=O | inconclusive: 5.8 µM [activator, single point] | 
35 | COc1ccc(S(=O)(=O)N2CCC(C(=O)N(CC(C)C)C3CCS(=O)(=O)C3)CC2)cc1OC (stereo not drawn) |  | inconclusive: 23.2%
36 | CC(C)CCn1c2ccccc2c2cc(CC(N)=O)ccc21 |  | inconclusive: -11.8%
37 | COc1ccc(N(CC(=O)N2CCCCCC2)S(=O)(=O)c2ccc(OC)c(OC)c2)cc1 |  | inconclusive: 42.2%
38 | COCCNS(=O)(=O)c1cc(OC)ccc1OC |  | inconclusive: -20.8%
39 | O=C(Nc1cn(-c2ccccc2)nc1-c1cccs1)c1ccco1 |  | inconclusive: 17.3%
40 | O=c1[nH]c2ccc(S(=O)(=O)N3CCCCC3)cc2s1 | inconclusive: 9.2 µM [activator, partial curve, poor fit] | 
41 | COC(=O)[C@@H](NC(=O)CCc1nnc(-c2ccsc2)o1)C(C)C |  | inconclusive: -0.247%
42 | Cc1ccc(S(=O)(=O)N2CCC(N3CCN(C)CC3)CC2)cc1Cl |  | inconclusive: -61.2%
43 | O=C(O)c1cccc(Nc2c([N+](=O)[O-])c(=O)oc3ccccc23)c1 |  | inactive: 8.97%
44 | COc1cccc(CN(C)C(=O)C2CCC(=O)N(Cc3cccc(F)c3)C2)c1 (stereo not drawn) |  | inconclusive: -10.3%
45 | Cc1ccc(C(=O)N/C(=C\c2cccs2)C(=O)N2CCN(C)CC2)cc1C |  | inconclusive: 113%
46 | CCOc1ccc(S(=O)(=O)NCC(c2ccc3c(c2)OCO3)N2CCN(C)CC2)cc1 (stereo not drawn) |  | inconclusive: -23.4%
47 | CCOC(=O)c1[nH]c(C)c(C(=O)Nc2ccc3c(c2)CCC3)c1C | inconclusive: 2.91 µM [activator, partial curve] | 
48 | Cc1cccc(NC(=O)c2cccc(C(=O)Nc3cccc(C)n3)c2)n1 |  | inconclusive: 2.12%
49 | COCCCNC(=O)C1CC(=O)N(CCc2ccccc2)C1 (stereo not drawn) |  | inconclusive: -41.4%
50 | COc1ccc(CNC(=O)CN2C(=O)NC3(CCCCCC3)C2=O)cc1OC |  | inactive: -22.1%
51 | COc1ccc(-n2nc3c(N4CCC(C(=O)NCCc5ccco5)CC4)nnc(C)c3c2C)cc1 | inconclusive: 0.0052 µM [activator, full curve, poor fit] | 
52 | CC1CCC2(CC1)NC(=O)N(CC(=O)N1CCN(c3ccccc3)CC1)C2=O (stereo not drawn) |  | inconclusive: 5.36%

Row | Structure (SMILES) | Potency | lipid storage change, negative = inhibition
53 | Cc1ccc(CCNC(=O)CCn2c(=O)c3cccn3c3ccc(F)cc32)cc1 | inconclusive: 29.1 µM [falling, single point] | 
54 | O=C1CCC/C(=N/NC(=O)c2cc(NS(=O)(=O)c3cccs3)cc(NS(=O)(=O)c3cccs3)c2)C1 |  | inconclusive: -22.1%
55 | Cc1cccn2c(=O)nc(SCC(=O)Nc3ccc4c(c3)OCO4)nc12 |  | inconclusive
56 | COc1ccc(NC(=O)c2cccc3ccccc23)cc1 |  | inconclusive: 77.1%
57 | Cc1ccc(C(=O)c2ccccc2C(=O)O)c(O)c1 | inconclusive: 6.51 µM [rising, single point] | 
58 | Oc1ccc(/C=N/NC(=S)Nc2cccnc2)cc1O | inconclusive: 32.6 µM [falling, single point] | 
59 | O=[N+]([O-])c1ccccc1/C=N/NC1=NS(=O)(=O)c2ccccc21 | inconclusive: 29.1 µM [activator, single point] | 
60 | O=C1CN(c2ccc(Cl)cc2)C2(CCCCC2)S1 |  | inconclusive: 20.5%
61 | CCOC(=O)CNC(=O)CN1CCCN(S(=O)(=O)c2ccc(Br)s2)CC1 |  | inconclusive: 24.6%
62 | CS(=O)(=O)N1CCN(c2ccc(C(=O)NC34CC5CC(CC(C5)C3)C4)cc2[N+](=O)[O-])CC1 | inconclusive: 9.2 µM [falling, partial curve] | 
63 | C=CCNc1nc(-c2cccs2)c(CC(=O)O)s1 |  | inconclusive: 21.7%
64 | O=C(O)CN(Cc1ccccc1)S(=O)(=O)c1ccc2c(c1)OCCO2 |  | inconclusive: -22.9%
65 | CC1(C)SCC2C(=O)N3C(CSC3(C)C)C(=O)N21 (stereo not drawn) |  | inconclusive: -34.7%
66 | Nc1nc(N2CCCCC2)nc(N2CCCCC2)n1 |  | inconclusive: 90.2%
67 | COc1ccc2nc(N3CCCC3)[nH]c2c1 |  | inconclusive: 0.681%
68 | Cc1cc(C)cc(NC(=S)N2CCN(S(=O)(=O)c3ccccc3)CC2)c1 |  | inconclusive: -31.2%
69 | Cc1ccc(S(=O)(=O)NCc2cccnc2)cc1C(=O)N1CCCC1 |  | inconclusive: 32.9%
70 | COc1ccc(-c2csc(NC(=O)CSCC(=O)Nc3cc(C)on3)n2)cc1 | inconclusive: 6.51 µM [falling, full curve, poor fit] | 
71 | C=CCn1c(SCC(=O)c2[nH]c(C)c(C(=O)OCC)c2C)nc2scc(-c3ccccc3)c2c1=O |  | inconclusive: -46.8%
72 | COc1cccc(CNC(=O)CCS(=O)(=O)c2cc3c(cc2C)NC(=O)CO3)c1 |  | inconclusive: 6.82%
73 | CC(=O)C1=C(C)Nc2ncnn2C1c1cccc(O)c1 (stereo not drawn) | inconclusive: 3.26 µM [activator, partial curve] | 
74 | CCOCCCN(CCC#N)C(=O)C1CCN(S(=O)(=O)c2ccc(-n3cnnn3)cc2)CC1 | inconclusive: 20.6 µM [activator, partial curve] | 
75 | C#CCOc1coc(COC(=O)c2ccccc2)cc1=O |  | inconclusive: 165%
76 | Cc1ccc2c(c1)C1CN(C)CCC1N2C(=O)c1cccc(S(=O)(=O)N(C)C)c1 (stereo not drawn) |  | inconclusive: -23.6%
77 | CC(C)/C(=N/Nc1ccccc1[N+](=O)[O-])c1ccccc1 | active: 9.2 µM | 
78 | NC(=O)CC(NC(=O)c1ccc(Br)cc1)c1ccc(NCc2ccc(F)c(F)c2)c([N+](=O)[O-])c1 (stereo not drawn) |  | inconclusive: 29.8%

Filtered by structure: those above containing bromine
Row | Structure (SMILES) | Potency | lipid storage change, negative = inhibition
61 | CCOC(=O)CNC(=O)CN1CCCN(S(=O)(=O)c2ccc(Br)s2)CC1 |  | inconclusive: 24.6%
78 | NC(=O)CC(NC(=O)c1ccc(Br)cc1)c1ccc(NCc2ccc(F)c(F)c2)c([N+](=O)[O-])c1 (stereo not drawn) |  | inconclusive: 29.8%
